# Results from the supplement of paper PMC10663445.
# Counter-ions that a name gives are not always drawn. This is one part of the list. Repeats are few or missing, and single values can be far off.
# System: hsa-miR-132-3p
# Test: miR-132-3p level in NGN2-iNs after compound treatment (TMM-normalised, ComBat batch-corrected) (batch-corrected normalised expression (arbitrary units)); higher = higher miR-132-3p expression
# Details: 10 µM; 24 h; human iPSC-derived NGN2 neurons (BR43)
row,Compound,miR-132-3p level in NGN2-iNs
1,C#C[C@]1(O)C=C[C@H]2[C@@H]3CCC4=CC(=O)CC[C@@H]4[C@H]3CC[C@@]21CC [Gestodene],-0.0347
2,Cc1cccc([C@H](C)c2c[nH]cn2)c1C [Dexmedetomidine],1.12
3,O=P1(NCCCl)OCCCN1CCCl (configuration not stated) [Ifosfamide],-0.455
4,O=S(=O)(F)Cc1ccccc1,-1.11
5,O=C(O[C@H]1C[N+]2(CCCOc3ccccc3)CCC1CC2)C(O)(c1cccs1)c1cccs1 [Aclidinium Bromide],1.09
6,CC(C)(C)[C@]1(O)CC2OC(=O)CC23C(=O)OC2OC(=O)[C@H](O)C231 (some centres not stated) [Bilobalide],-0.91
7,CC[C@@H]1/C=C/C=C/C[C@H](C)[C@H](O)[C@](C)(O)C(=O)[C@H](C)[C@@H](O)[C@H](C)C(=O)[C@H](C)[C@@H](O)[C@H](C)/C=C/C(=O)O[C@H]2[C@@H](C)[C@@H](CC1)O[C@@]1(CC[C@@H](C)[C@@H](C[C@H](C)O)O1)[C@@H]2C [Oligomycin A],0.918
8,O=C(Oc1ccc([N+](=O)[O-])cc1)N1CCC(C(O)(c2ccc3c(c2)OCO3)c2ccc3c(c2)OCO3)CC1,-0.622
9,Cc1cccc(C)c1NC1=NCCCS1 [Xylazine HCl],-0.291
10,O=C1CCC[C@@H]2[C@H]3CCCN4CCC[C@@H](CN12)[C@@H]34 [(+)-Matrine],1.11
11,CCC1(c2ccc(N)cc2)CCC(=O)NC1=O (configuration not stated) [Aminoglutethimide],2.42
12,CCN(C)C(=O)Oc1cccc([C@H](C)N(C)C)c1 [Rivastigmine Tartrate],0.917
13,C[N+]1(C)[C@@H]2C[C@@H](OC(=O)[C@H](CO)c3ccccc3)C[C@H]1[C@@H]1O[C@@H]12 [Methscopolamine],-0.428
14,C[C@]12CC[C@H](O)C[C@@H]1CC[C@@H]1[C@@H]2CC[C@]2(C)C(=O)CC[C@@H]12 [Epiandrosterone],-0.538
15,"NCC(O)c1ccc(O)cc1 (racemic) [(+,-)-Octopamine HCl]",-0.53
16,C[C@@H]1O[C@@H](O[C@H]2C[C@@H](O)[C@]3(CO)[C@H]4[C@H](O)C[C@]5(C)[C@@H](C6=CC(=O)OC6)CC[C@]5(O)[C@@H]4CC[C@]3(O)C2)[C@H](O)[C@H](O)[C@H]1O [Ouabain],5.85
17,"CC12NC(Cc3ccccc31)c1ccccc12 (single isomer, unassigned; (-)) [(-)-Dizocilpine (MK 801) Maleate]",-0.262
18,CC(=O)Nc1ccc(OC[C@](C)(O)C(=O)Nc2ccc([N+](=O)[O-])c(C(F)(F)F)c2)cc1 [Andarine],0.219
19,"C[C@](O)(COc1ccc(C#N)cc1)C(=O)Nc1ccc(C#N)c(C(F)(F)F)c1 [Ostarine (GTx-024, MK-2866 )]",-0.614
20,C[C@]12CC[C@H]3[C@@H](CC[C@@]45O[C@@H]4C(O)=C(C#N)C[C@]35C)[C@@H]1CC[C@@H]2O [Trilostane],0.721
21,Cc1c(N)nc(C(CC(N)=O)NCC(N)C(N)=O)nc1C(=O)NC(C(=O)NC(C)C(O)C(C)C(=O)NC(C(=O)NCCc1nc(-c2nc(C(=O)NCCC[S+](C)C)cs2)cs1)C(C)O)C(O[C@@H]1O[C@@H](CO)[C@@H](O)[C@H](O)[C@@H]1O[C@H]1O[C@H](CO)[C@@H](O)[C@H](OC(N)=O)[C@@H]1O)c1cnc[nH]1 (some centres not stated) [Bleomycin sulfate],0.548
22,CN1C2CC(O)CC1C1OC12 (configuration not stated) [Scopine],-0.589
23,CC(C)N(CCNC(=O)CN1CCCC1=O)C(C)C [Pramiracetam],-0.467
24,CNCC(=O)c1ccc(O)c(O)c1 [Adrenalone HCl],0.242

row,Compound,miR-132-3p level in NGN2-iNs
1,COC(=O)C1=CCCN(C)C1 [Arecoline HBr],0.595
2,CC[C@@]1(O)C(=O)OCc2c1cc1n(c2=O)Cc2cc3ccccc3nc2-1 [Camptothecin],0.0455
3,CN1c2ccccc2C(NCCCCCCC(=O)O)c2ccc(Cl)cc2S1(=O)=O (configuration not stated) [Tianeptine sodium],-0.707
4,CCNC(=O)C[C@@H]1N=C(c2ccc(Cl)cc2)c2cc(OC)ccc2-n2c(C)nnc21,-0.424
5,O=C(O)CNC(=O)c1c(O)c2ccccc2n(Cc2ccccc2)c1=O,-0.512
6,CC(=O)Nc1ccc(Cc2ccc(NC(C)=O)cc2)cc1,0.883
7,COc1cc(-n2c(=S)[nH]c3ccccc3c2=O)c(Cl)cc1Cl [Mdivi-1],-0.458
8,C[C@H]1CCC/C=C/[C@@H]2C[C@H](O)C[C@H]2[C@H](O)/C=C/C(=O)O1 [Brefeldin A],-0.886
9,CN(C)Cc1c[nH]c2ccccc12 [Gramine],-0.229
10,O=C(O[C@H]1C[C@H]2CC[C@@H](C1)[N+]21CCCC1)C(O)(c1ccccc1)c1ccccc1 [Trospium chloride],-0.245
11,C1=C2CCCN[C@H]2[C@@H]2C[C@H]1[C@H]1CCCCN1C2 [Aloperine],0.669
12,CN1CCC(c2c[nH]c3ccc(O)cc23)CC1,-0.472
13,NC(=O)CN1CC(O)CC1=O (configuration not stated) [Oxiracetam],1.33
14,COC[C@H]1OC(=O)c2coc3c2[C@@]1(C)C1=C(C3=O)[C@@H]2CCC(=O)[C@@]2(C)C[C@H]1OC(C)=O,0.823
15,Cc1cccc(C(C)c2c[nH]cn2)c1C (configuration not stated) [Medetomidine HCl],-0.112
16,C=C[C@H]1CN2CC[C@H]1C[C@H]2[C@H](O)c1ccnc2ccccc12 [Cinchonidine],-0.0799
17,C/C(=C\c1csc(C)n1)[C@@H]1C[C@@H]2O[C@]2(C)CCC[C@H](C)[C@H](O)[C@@H](C)C(=O)C(C)(C)[C@@H](O)CC(=O)O1 [Patupilone (Epothilone B)],0.0932
18,O=c1[nH]c2ccccc2n1CCCN1CCC(n2c(=O)[nH]c3cc(Cl)ccc32)CC1 [Domperidone],-0.741
19,Cc1cc(O)ccc1Cl [Chlorocresol],-0.402
20,c1cc2c(cc1[C@H]1OC[C@H]3[C@@H]1CO[C@@H]3c1ccc3c(c1)OCO3)OCO2 [Sesamin],1.16
21,Nc1nc(N)nc(NC2CC2)n1 [Cyromazine],-1.13
22,CN1[C@@H]2CC[C@H]1C[C@@H](OC(=O)[C@H](CO)c1ccccc1)C2 [Hyoscyamine],-0.00177
23,Fc1cc(F)c2c(c1)[C@H]1C=CC[C@H]1C(c1cccnc1)N2 (some centres not stated) [Golgicide A],1.02

# Another view of 4 compounds above.
row | Compound | miR-132-3p level in NGN2-iNs
10 | O=C1CCC[C@@H]2[C@H]3CCCN4CCC[C@@H](CN12)[C@@H]34 [(+)-Matrine] | 1.11
11 | CCC1(c2ccc(N)cc2)CCC(=O)NC1=O (configuration not stated) [Aminoglutethimide] | 2.42
12 | CCN(C)C(=O)Oc1cccc([C@H](C)N(C)C)c1 [Rivastigmine Tartrate] | 0.917
13 | C[N+]1(C)[C@@H]2C[C@@H](OC(=O)[C@H](CO)c3ccccc3)C[C@H]1[C@@H]1O[C@@H]12 [Methscopolamine] | -0.428
